{"source": "the supplement of paper PMC8728848", "binders": {"B1": {"name": "TAL6-4LysM (Trichoderma atroviride) (protein)", "chain": "AADSIPSISPTGIITPTPTQSGMVSNCNKFYDVHSNDGCSAIASSQHVDLSSLYKWNPAIKTDCSGLQASVYVCIGILTTSMSTTSKLPTTTSKPSTTSKPPTGITTPTPTQSGMVKNCNKFYDVHSGDGCSAIASSQKVNLSSFYLWNPAVKTDCSGLQASVFVCIGTLTTSMSTTTSKLPTTTSKPSTTSKPPTGIITPTPTQNGMVKNCNKFYDVHSGDGCSAIASSQKVNLSSFYLWNPAVKTDCSGLQASVFVCVGTATTTTAAGITTPTPTQSGMVSGCNKFYDVHAGDGCSAIASSQKIALSSLYKWNPAVKTDCSGLQASVYICIGVGNAAAARVTGALEQKLISEEDLNSAVDHHHHHH"}}, "assay_in_all_cases": "glycan array binding signal (z-score within array); higher = stronger binding", "details_in_all_cases": "glycan notation: IUPAC condensed, linker removed", "key": {"[1]": {"target": "Neu5Ac(a2-3)Gal(b1-4)GlcNAc(b1-3)Gal(b1-4)GlcNAc(b1-3)Gal(b1-4)GlcNAc", "method_in_brief": "(§1)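 Arrays were curated from the Consortium for Functional Glycomics database, 3228 in total, and kept only where the protein sequence was available. Binding is expressed as a within-array Z-score. This score was averaged across arrays of the same protein sequence at different concentrations or buffers and across linkers, and negative values can be read as non-binding.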"}, "[2]": {"target": "Neu5Ac(a2-3)Gal(b1-4)GlcNAc(b1-3)Gal(b1-4)GlcNAc(b1-3)Gal(b1-4)GlcNAc(b1-2)Man(a1-3)[Neu5Ac(a2-3)Gal(b1-4)GlcNAc(b1-3)Gal(b1-4)GlcNAc(b1-3)Gal(b1-4)GlcNAc(b1-2)Man(a1-6)]GalNAc", "method_in_brief": "as §1"}, "[3]": {"target": "Neu5Ac(a2-3)Gal(b1-4)GlcNAc(b1-3)Gal(b1-4)GlcNAc(b1-3)GalNAc", "method_in_brief": "as §1"}, "[4]": {"target": "Neu5Ac(a2-3)Gal(b1-4)GlcNAc(b1-3)Gal(b1-4)GlcNAc(b1-3)[Neu5Ac(a2-3)Gal(b1-4)GlcNAc(b1-3)Gal(b1-4)GlcNAc(b1-6)]GalNAc", "method_in_brief": "as §1"}, "[5]": {"target": "Neu5Ac(a2-3)Gal(b1-4)GlcNAc(b1-3)Gal(b1-4)GlcNAc(b1-6)[Gal(b1-3)]GalNAc", "method_in_brief": "as §1"}, "[6]": {"target": "Neu5Ac(a2-3)Gal(b1-4)GlcNAc(b1-3)Gal(b1-4)[Fuc(a1-3)]GlcNAc", "method_in_brief": "as §1"}, "[7]": {"target": "Neu5Ac(a2-3)Gal(b1-4)GlcNAc(b1-3)GalNAc", "method_in_brief": "as §1"}, "[8]": {"target": "Neu5Ac(a2-3)Gal(b1-4)GlcNAc(b1-3)[Neu5Ac(a2-3)Gal(b1-4)GlcNAc(b1-6)]GalNAc", "method_in_brief": "as §1"}, "[9]": {"target": "Neu5Ac(a2-3)Gal(b1-4)GlcNAc(b1-6)GalNAc", "method_in_brief": "as §1"}, "[10]": {"target": "Neu5Ac(a2-3)Gal(b1-4)GlcNAc(b1-6)[Gal(b1-3)]GalNAc", "method_in_brief": "as §1"}, "[11]": {"target": "Neu5Ac(a2-3)Gal(b1-4)GlcNAc(b1-6)[Neu5Ac(a2-3)Gal(b1-3)]GalNAc", "method_in_brief": "as §1"}, "[12]": {"target": "Neu5Ac(a2-3)Gal(b1-4)GlcNAc6S", "method_in_brief": "as §1"}, "[13]": {"target": "Neu5Ac(a2-3)Gal(b1-4)[Fuc(a1-3)]GlcNAc", "method_in_brief": "as §1"}, "[14]": {"target": "Neu5Ac(a2-3)Gal(b1-4)[Fuc(a1-3)]GlcNAc(b1-2)Man", "method_in_brief": "as §1"}, "[15]": {"target": "Neu5Ac(a2-3)Gal(b1-4)[Fuc(a1-3)]GlcNAc(b1-3)Gal", "method_in_brief": "as §1"}, "[16]": {"target": "Neu5Ac(a2-3)Gal(b1-4)[Fuc(a1-3)]GlcNAc(b1-3)Gal(b1-4)GlcNAc", "method_in_brief": "as §1"}, "[17]": {"target": "Neu5Ac(a2-3)Gal(b1-4)[Fuc(a1-3)]GlcNAc(b1-3)Gal(b1-4)[Fuc(a1-3)]GlcNAc(b1-3)Gal(b1-4)[Fuc(a1-3)]GlcNAc", "method_in_brief": "as §1"}, "[18]": {"target": "Neu5Ac(a2-3)Gal(b1-4)[Fuc(a1-3)]GlcNAc(b1-3)GalNAc", "method_in_brief": "as §1"}, "[19]": {"target": "Neu5Ac(a2-3)Gal(b1-4)[Fuc(a1-3)]GlcNAc(b1-6)[Gal(b1-3)]GalNAc", "method_in_brief": "as §1"}, "[20]": {"target": "Neu5Ac(a2-3)Gal(b1-4)[Fuc(a1-3)]GlcNAc(b1-6)[Neu5Ac(a2-3)Gal(b1-3)]GalNAc", "method_in_brief": "as §1"}, "[21]": {"target": "Neu5Ac(a2-3)Gal(b1-4)[Fuc(a1-3)]GlcNAc6S", "method_in_brief": "as §1"}, "[22]": {"target": "Neu5Ac(a2-3)Gal6S(b1-4)GlcNAc", "method_in_brief": "as §1"}, "[23]": {"target": "Neu5Ac(a2-3)Gal6S(b1-4)[Fuc(a1-3)]GlcNAc", "method_in_brief": "as §1"}, "Neu5Ac(a2-3)GalNAc": {"target": "Neu5Ac(a2-3)GalNAc", "method_in_brief": "as §1"}, "[24]": {"target": "Neu5Ac(a2-3)GalNAc(b1-4)GlcNAc", "method_in_brief": "as §1"}, "[25]": {"target": "Neu5Ac(a2-3)[GalNAc(b1-4)]Gal(b1-4)Glc", "method_in_brief": "as §1"}, "[26]": {"target": "Neu5Ac(a2-3)[GalNAc(b1-4)]Gal(b1-4)GlcNAc", "method_in_brief": "as §1"}, "[27]": {"target": "Neu5Ac(a2-3)[GalNAc(b1-4)]Gal(b1-4)GlcNAc(b1-3)GalNAc", "method_in_brief": "as §1"}, "[28]": {"target": "Neu5Ac(a2-3)[Neu5Ac(a2-6)]GalNAc", "method_in_brief": "as §1"}, "Neu5Ac(a2-6)Gal": {"target": "Neu5Ac(a2-6)Gal", "method_in_brief": "as §1"}, "[29]": {"target": "Neu5Ac(a2-6)Gal(b1-3)GlcNAc(b1-3)[Gal(b1-4)GlcNAc(b1-6)]Gal(b1-4)Glc", "method_in_brief": "as §1"}, "Neu5Ac(a2-6)Gal(b1-4)Glc": {"target": "Neu5Ac(a2-6)Gal(b1-4)Glc", "method_in_brief": "as §1"}, "[30]": {"target": "Neu5Ac(a2-6)Gal(b1-4)GlcNAc", "method_in_brief": "as §1"}, "[31]": {"target": "Neu5Ac(a2-6)Gal(b1-4)GlcNAc(b1-2)Man", "method_in_brief": "as §1"}, "[32]": {"target": "Neu5Ac(a2-6)Gal(b1-4)GlcNAc(b1-2)Man(a1-3)Man(b1-4)GlcNAc(b1-4)GlcNAc", "method_in_brief": "as §1"}, "[33]": {"target": "Neu5Ac(a2-6)Gal(b1-4)GlcNAc(b1-2)Man(a1-3)[Gal(b1-4)GlcNAc(b1-2)Man(a1-6)]Man(b1-4)GlcNAc(b1-4)GlcNAc", "method_in_brief": "as §1"}, "[34]": {"target": "Neu5Ac(a2-6)Gal(b1-4)GlcNAc(b1-2)Man(a1-3)[GlcNAc(b1-2)Man(a1-6)]Man(b1-4)GlcNAc(b1-4)GlcNAc", "method_in_brief": "as §1"}, "[35]": {"target": "Neu5Ac(a2-6)Gal(b1-4)GlcNAc(b1-2)Man(a1-3)[GlcNAc(b1-4)][Neu5Ac(a2-6)Gal(b1-4)GlcNAc(b1-2)Man(a1-6)]Man(b1-4)GlcNAc(b1-4)GlcNAc", "method_in_brief": "as §1"}}, "note": "The other results are listed elsewhere or left out.", "data": [{"binder": "B1", "values": [{"measurement": "glycan array binding signal (z-score)", "setting": "[1]", "result": -0.019}, {"measurement": "glycan array binding signal (z-score)", "setting": "[2]", "result": 1.49}, {"measurement": "glycan array binding signal (z-score)", "setting": "[3]", "result": -0.304}, {"measurement": "glycan array binding signal (z-score)", "setting": "[4]", "result": -0.672}, {"measurement": "glycan array binding signal (z-score)", "setting": "[5]", "result": 0.318}, {"measurement": "glycan array binding signal (z-score)", "setting": "[6]", "result": 0.332}, {"measurement": "glycan array binding signal (z-score)", "setting": "[7]", "result": 0.334}, {"measurement": "glycan array binding signal (z-score)", "setting": "[8]", "result": -2.22}, {"measurement": "glycan array binding signal (z-score)", "setting": "[9]", "result": 0.12}, {"measurement": "glycan array binding signal (z-score)", "setting": "[10]", "result": -0.586}, {"measurement": "glycan array binding signal (z-score)", "setting": "[11]", "result": -1.46}, {"measurement": "glycan array binding signal (z-score)", "setting": "[12]", "result": 0.471}, {"measurement": "glycan array binding signal (z-score)", "setting": "[13]", "result": -0.955}, {"measurement": "glycan array binding signal (z-score)", "setting": "[14]", "result": -1.26}, {"measurement": "glycan array binding signal (z-score)", "setting": "[15]", "result": 0.373}, {"measurement": "glycan array binding signal (z-score)", "setting": "[16]", "result": 2}, {"measurement": "glycan array binding signal (z-score)", "setting": "[17]", "result": -0.188}, {"measurement": "glycan array binding signal (z-score)", "setting": "[18]", "result": -0.18}, {"measurement": "glycan array binding signal (z-score)", "setting": "[19]", "result": -0.34}, {"measurement": "glycan array binding signal (z-score)", "setting": "[20]", "result": -0.872}, {"measurement": "glycan array binding signal (z-score)", "setting": "[21]", "result": 1.11}, {"measurement": "glycan array binding signal (z-score)", "setting": "[22]", "result": 0.867}, {"measurement": "glycan array binding signal (z-score)", "setting": "[23]", "result": -1.06}, {"measurement": "glycan array binding signal (z-score)", "setting": "Neu5Ac(a2-3)GalNAc", "result": 0.413}, {"measurement": "glycan array binding signal (z-score)", "setting": "[24]", "result": 0.198}, {"measurement": "glycan array binding signal (z-score)", "setting": "[25]", "result": -1.03}, {"measurement": "glycan array binding signal (z-score)", "setting": "[26]", "result": -0.761}, {"measurement": "glycan array binding signal (z-score)", "setting": "[27]", "result": 0.779}, {"measurement": "glycan array binding signal (z-score)", "setting": "[28]", "result": -0.633}, {"measurement": "glycan array binding signal (z-score)", "setting": "Neu5Ac(a2-6)Gal", "result": -0.128}, {"measurement": "glycan array binding signal (z-score)", "setting": "[29]", "result": 0.176}, {"measurement": "glycan array binding signal (z-score)", "setting": "Neu5Ac(a2-6)Gal(b1-4)Glc", "result": 0.221}, {"measurement": "glycan array binding signal (z-score)", "setting": "[30]", "result": 1.91}, {"measurement": "glycan array binding signal (z-score)", "setting": "[31]", "result": -0.77}, {"measurement": "glycan array binding signal (z-score)", "setting": "[32]", "result": 1.14}, {"measurement": "glycan array binding signal (z-score)", "setting": "[33]", "result": 0.148}, {"measurement": "glycan array binding signal (z-score)", "setting": "[34]", "result": -0.493}, {"measurement": "glycan array binding signal (z-score)", "setting": "[35]", "result": -0.336}]}]}
